The chains behind the UniProt entries cited, without tags or fusion partners. Where a name states a change or a piece, a line headed by the entry shows the natural chain unless it says otherwise.
UniProt P32321: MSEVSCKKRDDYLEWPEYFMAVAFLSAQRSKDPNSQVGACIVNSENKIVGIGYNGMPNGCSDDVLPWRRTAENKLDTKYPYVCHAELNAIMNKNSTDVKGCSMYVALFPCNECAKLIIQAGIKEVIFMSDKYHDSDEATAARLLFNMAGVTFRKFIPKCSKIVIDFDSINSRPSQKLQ
UniProt P43361: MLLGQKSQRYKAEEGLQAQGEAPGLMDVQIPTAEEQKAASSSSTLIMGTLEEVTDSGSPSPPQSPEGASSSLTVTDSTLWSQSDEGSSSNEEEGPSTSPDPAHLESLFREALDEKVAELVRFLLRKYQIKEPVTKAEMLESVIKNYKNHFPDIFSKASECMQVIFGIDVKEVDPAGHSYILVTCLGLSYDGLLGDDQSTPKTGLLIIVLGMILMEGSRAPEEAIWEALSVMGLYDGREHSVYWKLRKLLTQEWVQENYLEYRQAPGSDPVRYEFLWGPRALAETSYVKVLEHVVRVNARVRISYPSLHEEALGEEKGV
UniProt P35611: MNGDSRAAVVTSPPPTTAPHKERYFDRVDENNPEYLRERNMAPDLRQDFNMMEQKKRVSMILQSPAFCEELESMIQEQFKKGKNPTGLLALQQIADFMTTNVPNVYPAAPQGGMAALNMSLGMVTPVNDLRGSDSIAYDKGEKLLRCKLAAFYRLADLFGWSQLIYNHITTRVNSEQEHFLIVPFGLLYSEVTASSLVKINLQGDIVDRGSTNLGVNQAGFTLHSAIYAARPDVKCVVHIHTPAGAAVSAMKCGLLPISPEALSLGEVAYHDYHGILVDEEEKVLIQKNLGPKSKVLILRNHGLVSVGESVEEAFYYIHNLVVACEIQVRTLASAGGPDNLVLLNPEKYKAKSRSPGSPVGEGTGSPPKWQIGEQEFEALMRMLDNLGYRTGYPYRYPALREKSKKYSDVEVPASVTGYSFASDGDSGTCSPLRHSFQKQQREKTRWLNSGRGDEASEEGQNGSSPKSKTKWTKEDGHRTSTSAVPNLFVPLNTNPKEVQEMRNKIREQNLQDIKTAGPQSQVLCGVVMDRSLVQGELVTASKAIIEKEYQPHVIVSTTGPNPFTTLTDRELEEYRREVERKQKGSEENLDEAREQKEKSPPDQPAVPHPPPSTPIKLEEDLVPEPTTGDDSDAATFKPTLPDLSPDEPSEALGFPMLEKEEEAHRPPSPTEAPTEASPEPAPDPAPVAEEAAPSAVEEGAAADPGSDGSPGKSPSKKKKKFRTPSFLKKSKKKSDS
UniProt P30613: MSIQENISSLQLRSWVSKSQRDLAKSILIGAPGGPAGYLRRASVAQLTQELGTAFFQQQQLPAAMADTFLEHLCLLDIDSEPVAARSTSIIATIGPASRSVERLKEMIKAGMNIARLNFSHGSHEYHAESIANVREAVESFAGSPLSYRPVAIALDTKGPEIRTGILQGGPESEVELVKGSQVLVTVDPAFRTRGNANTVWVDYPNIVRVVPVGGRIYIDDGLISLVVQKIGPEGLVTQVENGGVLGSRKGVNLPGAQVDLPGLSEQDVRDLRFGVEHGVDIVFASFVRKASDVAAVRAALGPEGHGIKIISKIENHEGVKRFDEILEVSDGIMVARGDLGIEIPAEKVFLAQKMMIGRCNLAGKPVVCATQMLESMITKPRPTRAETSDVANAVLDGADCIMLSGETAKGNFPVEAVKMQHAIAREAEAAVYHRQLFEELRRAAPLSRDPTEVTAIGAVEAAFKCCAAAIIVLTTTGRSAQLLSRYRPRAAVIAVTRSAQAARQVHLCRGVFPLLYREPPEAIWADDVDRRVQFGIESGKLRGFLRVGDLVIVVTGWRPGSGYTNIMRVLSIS
UniProt P39748, whole entry: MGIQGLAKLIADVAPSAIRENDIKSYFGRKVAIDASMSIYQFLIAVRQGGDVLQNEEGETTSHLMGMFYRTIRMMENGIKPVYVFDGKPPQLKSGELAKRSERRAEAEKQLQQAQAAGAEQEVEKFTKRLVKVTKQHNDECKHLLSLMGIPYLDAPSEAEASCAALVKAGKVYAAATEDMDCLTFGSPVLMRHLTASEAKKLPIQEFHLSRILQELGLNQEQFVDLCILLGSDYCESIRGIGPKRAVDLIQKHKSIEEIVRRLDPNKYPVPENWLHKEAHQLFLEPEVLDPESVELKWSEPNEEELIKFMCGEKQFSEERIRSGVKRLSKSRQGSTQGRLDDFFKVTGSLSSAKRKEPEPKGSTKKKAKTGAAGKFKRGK
UniProt P35219: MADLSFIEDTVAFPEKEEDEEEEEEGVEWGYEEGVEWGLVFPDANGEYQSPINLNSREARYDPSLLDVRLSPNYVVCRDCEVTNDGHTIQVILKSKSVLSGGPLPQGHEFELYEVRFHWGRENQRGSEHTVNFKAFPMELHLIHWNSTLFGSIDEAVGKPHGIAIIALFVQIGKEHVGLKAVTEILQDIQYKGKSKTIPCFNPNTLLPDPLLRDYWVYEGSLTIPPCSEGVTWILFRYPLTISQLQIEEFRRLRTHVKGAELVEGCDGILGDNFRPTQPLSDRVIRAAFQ
UniProt P30279, whole entry: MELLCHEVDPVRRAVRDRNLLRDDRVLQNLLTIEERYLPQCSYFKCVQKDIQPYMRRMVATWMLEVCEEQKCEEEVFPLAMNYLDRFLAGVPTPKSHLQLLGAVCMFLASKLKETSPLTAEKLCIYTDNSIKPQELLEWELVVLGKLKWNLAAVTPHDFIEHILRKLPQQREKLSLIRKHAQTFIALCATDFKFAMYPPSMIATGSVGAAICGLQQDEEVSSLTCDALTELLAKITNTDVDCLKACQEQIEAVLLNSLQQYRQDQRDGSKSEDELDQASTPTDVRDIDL
UniProt P32314: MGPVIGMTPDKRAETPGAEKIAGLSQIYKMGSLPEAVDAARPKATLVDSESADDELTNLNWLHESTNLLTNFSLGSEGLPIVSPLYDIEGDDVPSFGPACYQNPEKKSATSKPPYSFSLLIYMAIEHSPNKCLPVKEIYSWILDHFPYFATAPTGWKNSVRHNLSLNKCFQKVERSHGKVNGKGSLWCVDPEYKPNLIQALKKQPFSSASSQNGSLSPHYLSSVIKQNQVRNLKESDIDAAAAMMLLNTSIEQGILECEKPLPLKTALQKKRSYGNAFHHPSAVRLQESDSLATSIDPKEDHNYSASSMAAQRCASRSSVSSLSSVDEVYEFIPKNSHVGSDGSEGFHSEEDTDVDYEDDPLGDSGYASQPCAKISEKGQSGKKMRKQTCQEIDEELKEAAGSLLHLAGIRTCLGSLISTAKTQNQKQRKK
UniProt P35713: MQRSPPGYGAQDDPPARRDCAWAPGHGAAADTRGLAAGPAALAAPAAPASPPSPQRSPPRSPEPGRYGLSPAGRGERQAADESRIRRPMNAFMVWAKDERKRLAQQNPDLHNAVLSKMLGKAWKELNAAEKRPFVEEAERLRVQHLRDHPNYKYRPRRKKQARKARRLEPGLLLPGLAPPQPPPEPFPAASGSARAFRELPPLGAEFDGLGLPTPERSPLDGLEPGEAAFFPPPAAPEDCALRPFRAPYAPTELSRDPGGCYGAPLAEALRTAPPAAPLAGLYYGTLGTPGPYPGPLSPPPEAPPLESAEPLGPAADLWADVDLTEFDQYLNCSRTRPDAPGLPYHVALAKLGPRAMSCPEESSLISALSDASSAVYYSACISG
UniProt P40926: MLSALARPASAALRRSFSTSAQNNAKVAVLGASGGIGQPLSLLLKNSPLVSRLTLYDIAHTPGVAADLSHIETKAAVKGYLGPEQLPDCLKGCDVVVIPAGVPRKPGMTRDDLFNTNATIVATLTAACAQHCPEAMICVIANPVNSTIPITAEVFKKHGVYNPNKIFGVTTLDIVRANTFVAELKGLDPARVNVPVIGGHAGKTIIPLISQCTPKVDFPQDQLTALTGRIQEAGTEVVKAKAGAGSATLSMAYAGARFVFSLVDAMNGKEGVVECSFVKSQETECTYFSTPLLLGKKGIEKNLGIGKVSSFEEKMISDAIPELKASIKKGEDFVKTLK
UniProt P30153, whole entry: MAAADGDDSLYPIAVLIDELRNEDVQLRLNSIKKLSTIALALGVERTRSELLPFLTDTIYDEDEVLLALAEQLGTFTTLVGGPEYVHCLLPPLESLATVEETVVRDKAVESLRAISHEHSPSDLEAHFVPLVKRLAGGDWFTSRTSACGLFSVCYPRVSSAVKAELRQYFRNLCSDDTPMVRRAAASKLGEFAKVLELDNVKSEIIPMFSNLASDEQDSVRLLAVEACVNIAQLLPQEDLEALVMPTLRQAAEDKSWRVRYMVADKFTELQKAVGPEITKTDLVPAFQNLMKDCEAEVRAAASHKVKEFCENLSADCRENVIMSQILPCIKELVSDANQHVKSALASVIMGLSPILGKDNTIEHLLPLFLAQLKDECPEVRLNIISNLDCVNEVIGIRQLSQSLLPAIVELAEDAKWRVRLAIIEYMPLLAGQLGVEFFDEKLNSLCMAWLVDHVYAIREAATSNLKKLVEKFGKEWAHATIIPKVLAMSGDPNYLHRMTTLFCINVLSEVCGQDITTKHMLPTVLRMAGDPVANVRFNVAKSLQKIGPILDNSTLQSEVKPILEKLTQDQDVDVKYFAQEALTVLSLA
UniProt P30047: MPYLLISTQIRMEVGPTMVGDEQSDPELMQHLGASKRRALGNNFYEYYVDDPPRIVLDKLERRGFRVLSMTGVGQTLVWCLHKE
UniProt P36959: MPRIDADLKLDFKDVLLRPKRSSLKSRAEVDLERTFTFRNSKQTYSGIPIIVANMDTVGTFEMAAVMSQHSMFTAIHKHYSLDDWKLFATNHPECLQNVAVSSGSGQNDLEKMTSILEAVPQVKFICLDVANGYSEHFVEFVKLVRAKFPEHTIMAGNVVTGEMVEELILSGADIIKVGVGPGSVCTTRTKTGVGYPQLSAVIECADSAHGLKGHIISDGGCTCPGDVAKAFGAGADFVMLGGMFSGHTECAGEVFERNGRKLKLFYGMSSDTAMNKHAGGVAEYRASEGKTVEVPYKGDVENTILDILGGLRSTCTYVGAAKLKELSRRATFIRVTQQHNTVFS
UniProt P30043: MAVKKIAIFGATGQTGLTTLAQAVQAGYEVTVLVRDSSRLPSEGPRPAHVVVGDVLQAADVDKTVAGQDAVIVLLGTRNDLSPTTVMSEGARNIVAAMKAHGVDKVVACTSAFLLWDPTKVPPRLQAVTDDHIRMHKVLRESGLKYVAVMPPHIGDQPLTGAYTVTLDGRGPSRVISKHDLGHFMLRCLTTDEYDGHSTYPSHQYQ
UniProt P36776: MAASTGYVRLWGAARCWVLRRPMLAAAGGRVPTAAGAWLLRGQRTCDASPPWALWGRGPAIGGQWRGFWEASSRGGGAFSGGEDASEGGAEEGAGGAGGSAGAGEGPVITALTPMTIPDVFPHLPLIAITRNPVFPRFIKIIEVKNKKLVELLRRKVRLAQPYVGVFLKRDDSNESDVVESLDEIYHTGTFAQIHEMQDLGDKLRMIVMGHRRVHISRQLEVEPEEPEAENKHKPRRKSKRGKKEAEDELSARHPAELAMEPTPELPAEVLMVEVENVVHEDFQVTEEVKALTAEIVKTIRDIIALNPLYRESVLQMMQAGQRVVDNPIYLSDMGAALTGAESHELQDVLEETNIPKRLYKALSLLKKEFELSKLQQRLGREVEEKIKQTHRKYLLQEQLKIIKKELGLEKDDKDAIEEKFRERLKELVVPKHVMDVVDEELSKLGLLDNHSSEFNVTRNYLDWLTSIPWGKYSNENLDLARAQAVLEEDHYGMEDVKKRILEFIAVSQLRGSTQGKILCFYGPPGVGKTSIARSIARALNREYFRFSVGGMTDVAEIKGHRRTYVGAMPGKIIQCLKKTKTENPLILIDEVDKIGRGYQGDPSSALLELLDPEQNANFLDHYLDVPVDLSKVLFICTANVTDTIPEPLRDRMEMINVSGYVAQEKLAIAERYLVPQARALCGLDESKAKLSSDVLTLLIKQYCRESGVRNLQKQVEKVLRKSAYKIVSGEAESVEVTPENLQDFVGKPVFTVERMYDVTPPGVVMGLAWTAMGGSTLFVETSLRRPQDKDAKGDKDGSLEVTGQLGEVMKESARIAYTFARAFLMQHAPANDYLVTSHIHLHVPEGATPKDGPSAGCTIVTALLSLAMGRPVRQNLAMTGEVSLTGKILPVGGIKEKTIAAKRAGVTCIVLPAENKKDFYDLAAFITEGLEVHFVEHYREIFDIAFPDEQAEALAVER
UniProt P34896: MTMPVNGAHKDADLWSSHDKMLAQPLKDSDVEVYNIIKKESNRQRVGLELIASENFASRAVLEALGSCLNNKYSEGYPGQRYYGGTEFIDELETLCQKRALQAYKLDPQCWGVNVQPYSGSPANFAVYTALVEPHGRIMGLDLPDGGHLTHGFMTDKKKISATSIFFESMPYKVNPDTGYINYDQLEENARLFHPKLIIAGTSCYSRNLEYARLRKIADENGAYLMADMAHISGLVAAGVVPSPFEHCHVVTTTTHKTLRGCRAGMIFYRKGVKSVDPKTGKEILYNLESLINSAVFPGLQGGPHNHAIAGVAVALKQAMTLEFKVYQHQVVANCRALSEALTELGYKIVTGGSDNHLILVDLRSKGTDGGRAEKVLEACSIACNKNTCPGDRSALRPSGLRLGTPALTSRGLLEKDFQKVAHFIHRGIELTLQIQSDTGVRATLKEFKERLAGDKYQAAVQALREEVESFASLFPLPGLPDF

Some of the results follow. Small differences around the control level are noise.
The targets below were run with CN[C@@H]1C[C@H]2O[C@@](C)([C@@H]1OC)n1c3ccccc3c3c4c(c5c6ccccc6n2c5c31)C(=O)NC4 [staurosporine] (assay: log2 fold change of tryptic peptide abundance, ligand vs vehicle (limited proteolysis) (log2 ratio); higher = more trypsin-susceptible (destabilized)). Settings: ligand concentration: 20 uM; sample: K562 cleared lysate; digestion: 4 min, 22 C (HT-PELSA RT4min, Orbitrap Astral).
For “UniProt P41229 (peptide sequence: ARQALASEDVTALLGR, peptide start residue: 1292)”, the log2 fold change was 0.328. “DCTD (peptide sequence: IVIDFDSINSRPSQK, peptide start residue: 162) (UniProt P32321)” gave a log2 fold change of -0.0773. Target “MAGEA8 (peptide sequence: AEMLESVIK, peptide start residue: 126) (UniProt P43361)” has a log2 fold change of 0.356. Target “ADD1 (peptide sequence: QDFNMMEQKK, peptide start residue: 47) (UniProt P35611)” has a log2 fold change of -0.737. “MARCKS (peptide sequence: GEAAAERPGEAAVASSPSK, peptide start residue: 12) (UniProt P29966)” showed a log2 fold change of -0.0969. “PKLR (peptide sequence: VGDLVIVVTGWRPGSGYTNIMR, peptide start residue: 548) (UniProt P30613)” gave a log2 fold change of -0.517. “FEN1 (peptide sequence: LIADVAPSAIRENDIK, peptide start residue: 9) (UniProt P39748)” gave a log2 fold change of 0.235. For “CA8 (peptide sequence: DCEVTNDGHTIQVILK, peptide start residue: 79) (UniProt P35219)”, the log2 fold change was -0.279. For “AGL (peptide sequence: HSPSIHQSVVAVSR, peptide start residue: 735) (UniProt P35573)”, the log2 fold change was -0.369. Target “CCND2 (peptide sequence: SHLQLLGAVCMFLASK, peptide start residue: 96) (UniProt P30279)” has a log2 fold change of -0.188. With “ACTR1B (peptide sequence: RTLFANIVLSGGSTLFK, peptide start residue: 292) (UniProt P42025)” the log2 fold change was -0.531. “RXRB (peptide sequence: VYASLETYCK, peptide start residue: 467) (UniProt P28702)” was tested, and the log2 fold change was -0.289. With “INPP5B (peptide sequence: SSTITVSDK, peptide start residue: 304) (UniProt P32019)” the log2 fold change was -0.119. “UniProt P32314 (peptide sequence: SYGNAFHHPSAVR, peptide start residue: 273)” was tested, and the log2 fold change was 0.335. Target “UniProt P35713 (peptide sequence: RPMNAFMVWAK, peptide start residue: 623)” has a log2 fold change of -0.15. “PCSK6 (peptide sequence: SIPLVQVLR, peptide start residue: 512) (UniProt P29122)” showed a log2 fold change of 0.0199. Target “ELF1 (peptide sequence: TLTQEVEK, peptide start residue: 564) (UniProt P32519)” has a log2 fold change of -0.698. “PRPH (peptide sequence: ISVPVHSFASLNIK, peptide start residue: 407) (UniProt P41219)” showed a log2 fold change of 0.0907. Target “RECQL (peptide sequence: QKPSNTEDFIEDIVK, peptide start residue: 292) (UniProt P46063)” has a log2 fold change of 0.521. Target “PRDX3 (peptide sequence: HLSVNDLPVGR, peptide start residue: 197) (UniProt P30048)” has a log2 fold change of 0.143. “RANGAP1 (peptide sequence: SLKLNTAEDAK, peptide start residue: 29) (UniProt P46060)” was tested, and the log2 fold change was 0.686. “NOS3 (peptide sequence: PGDPVPCFIR, peptide start residue: 985) (UniProt P29474)” was tested, and the log2 fold change was 0.392. In the case of “MKI67 (peptide sequence: VDMKEEPLAVSK, peptide start residue: 2489) (UniProt P46013)”, the log2 fold change is reported as -0.347. Work on “GPD2 (peptide sequence: VIFFLPWQK, peptide start residue: 340) (UniProt P43304)” yielded a log2 fold change of -0.139. “EEF1D (peptide sequence: YDDAERR, peptide start residue: 18) (UniProt P29692)” was tested, and the log2 fold change was -0.148. Work on “COL18A1 (peptide sequence: EETGAALKPR, peptide start residue: 679) (UniProt P39060)” yielded a log2 fold change of 0.0952. With “DEK (peptide sequence: LLASANLEEVTMK, peptide start residue: 332) (UniProt P35659)” the log2 fold change was -0.622. Target “ERCC5 (peptide sequence: IRPNPHDTK, peptide start residue: 905) (UniProt P28715)” has a log2 fold change of 0.822. For “MCM4 (peptide sequence: FRAEINILLCGDPGTSK, peptide start residue: 500) (UniProt P33991)”, the log2 fold change was -0.21. In the case of “MDH2 (peptide sequence: IFGVTTLDIVR, peptide start residue: 166) (UniProt P40926)”, the log2 fold change is reported as 0.148. With “PAFAH1B1 (peptide sequence: KWTSVIR, peptide start residue: 54) (UniProt P43034)” the log2 fold change was 0.35. With “PPP2R1A (peptide sequence: NEDVQLR, peptide start residue: 34) (UniProt P30153)” the log2 fold change was -0.0962. “GCHFR (peptide sequence: IVLDKLER, peptide start residue: 55) (UniProt P30047)” showed a log2 fold change of 0.375. Work on “CLIP1 (peptide sequence: IGFPSTTPAK, peptide start residue: 281) (UniProt P30622)” yielded a log2 fold change of 0.369. Work on “UniProt P28290 (peptide sequence: SSALMGMCGSR, peptide start residue: 1044)” yielded a log2 fold change of 0.382. In the case of “GMPR (peptide sequence: VTQQHNTVFS, peptide start residue: 336) (UniProt P36959)”, the log2 fold change is reported as -0.287. Target “BLVRB (peptide sequence: LQAVTDDHIR, peptide start residue: 125) (UniProt P30043)” has a log2 fold change of -0.429. Target “LONP1 (peptide sequence: LKELVVPK, peptide start residue: 425) (UniProt P36776)” has a log2 fold change of 0.249. For “SHMT1 (peptide sequence: DADLWSSHDK, peptide start residue: 11) (UniProt P34896)”, the log2 fold change was 0.214.

Reference: the supplement of paper PMC12819154, “High-throughput peptide-centric local stability assay extends protein–ligand identification to membrane proteins, tissues and bacteria” (Nature Structural & Molecular Biology, 2025)
